The target of the assay is CCAAT/enhancer-binding protein β (human (endogenous in C13*)) (UniProt P17676). Kind of assay: co-IP; lysates from C13* cells; Pierce Crosslink Immunoprecipitation Kit; IP with mouse anti-C/EBPβ and blot with rabbit anti-DOT1L, and the reciprocal; normal mouse IgG and rabbit IgG as controls.

Protein sequences, listed by entry. Tags and fused reporters are not part of them.
UniProt P17676: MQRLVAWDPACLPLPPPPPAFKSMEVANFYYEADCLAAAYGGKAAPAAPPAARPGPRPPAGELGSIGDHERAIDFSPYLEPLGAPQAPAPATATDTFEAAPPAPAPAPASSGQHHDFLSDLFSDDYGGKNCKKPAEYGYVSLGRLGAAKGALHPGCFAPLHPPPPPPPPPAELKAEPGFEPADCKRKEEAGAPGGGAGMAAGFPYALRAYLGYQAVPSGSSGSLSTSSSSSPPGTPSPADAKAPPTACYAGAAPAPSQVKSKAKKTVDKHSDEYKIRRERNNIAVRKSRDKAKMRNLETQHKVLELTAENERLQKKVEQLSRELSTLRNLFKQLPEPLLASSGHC
UniProt Q8TEK3: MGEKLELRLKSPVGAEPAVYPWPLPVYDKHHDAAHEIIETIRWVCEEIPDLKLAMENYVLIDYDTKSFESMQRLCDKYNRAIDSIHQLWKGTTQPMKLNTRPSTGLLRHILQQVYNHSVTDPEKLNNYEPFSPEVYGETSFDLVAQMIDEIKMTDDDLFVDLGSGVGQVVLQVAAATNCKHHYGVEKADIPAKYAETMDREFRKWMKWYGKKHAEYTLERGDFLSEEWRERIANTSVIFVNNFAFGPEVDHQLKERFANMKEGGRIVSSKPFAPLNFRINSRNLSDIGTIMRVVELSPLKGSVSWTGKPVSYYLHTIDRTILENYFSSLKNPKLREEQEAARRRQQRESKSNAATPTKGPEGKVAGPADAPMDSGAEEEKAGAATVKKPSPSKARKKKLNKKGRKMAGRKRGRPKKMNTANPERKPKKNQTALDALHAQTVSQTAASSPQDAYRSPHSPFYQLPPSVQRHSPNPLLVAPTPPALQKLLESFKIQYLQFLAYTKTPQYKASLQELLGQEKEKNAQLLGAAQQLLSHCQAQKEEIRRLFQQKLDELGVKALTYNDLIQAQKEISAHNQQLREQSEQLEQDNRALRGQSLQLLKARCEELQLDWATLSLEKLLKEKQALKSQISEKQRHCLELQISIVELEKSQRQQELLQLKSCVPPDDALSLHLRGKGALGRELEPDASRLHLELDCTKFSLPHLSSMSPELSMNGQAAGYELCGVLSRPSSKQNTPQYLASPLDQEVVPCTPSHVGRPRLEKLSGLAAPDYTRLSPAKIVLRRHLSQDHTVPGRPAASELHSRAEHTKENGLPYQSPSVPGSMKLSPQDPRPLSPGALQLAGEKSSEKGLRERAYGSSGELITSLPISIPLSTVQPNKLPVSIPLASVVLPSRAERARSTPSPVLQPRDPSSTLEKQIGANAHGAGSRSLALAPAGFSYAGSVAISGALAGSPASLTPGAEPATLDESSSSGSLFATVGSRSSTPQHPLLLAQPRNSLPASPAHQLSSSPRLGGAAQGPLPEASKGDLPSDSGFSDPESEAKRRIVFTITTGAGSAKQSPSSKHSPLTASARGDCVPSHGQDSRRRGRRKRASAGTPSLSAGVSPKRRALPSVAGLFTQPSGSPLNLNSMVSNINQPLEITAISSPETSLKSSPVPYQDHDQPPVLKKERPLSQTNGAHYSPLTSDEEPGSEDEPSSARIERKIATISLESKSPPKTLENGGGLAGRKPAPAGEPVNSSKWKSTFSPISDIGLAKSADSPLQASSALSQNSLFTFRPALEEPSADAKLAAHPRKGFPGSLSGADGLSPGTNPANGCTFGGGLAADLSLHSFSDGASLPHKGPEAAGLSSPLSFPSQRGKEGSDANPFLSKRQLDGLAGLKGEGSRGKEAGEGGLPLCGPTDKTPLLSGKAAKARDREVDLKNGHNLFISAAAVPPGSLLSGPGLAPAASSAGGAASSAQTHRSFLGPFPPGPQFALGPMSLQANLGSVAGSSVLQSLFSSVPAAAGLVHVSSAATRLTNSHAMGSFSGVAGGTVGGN

No constants are given. Whether binding was seen depends on the method and setting. In cells and extracts the contact can be indirect. Some entries that bind do so weakly or less than the wild type.

On to “DOT1L (from UniProt Q8TEK3 1-1537) (enzyme)”, for which the binding result is “binds”.
